For the assay, the target named is BmrD of cysteine-less BmrCD bearing E592Q (BmrCD-QQ) (Bacillus subtilis) (UniProt O07549). The assay can be described thus: cryo-EM structure.

By UniProt entry, the sequences of proteins in these tests, tags left out. Where a name states a change or a piece, a line headed by the entry shows the natural chain unless it says otherwise.
UniProt O07549: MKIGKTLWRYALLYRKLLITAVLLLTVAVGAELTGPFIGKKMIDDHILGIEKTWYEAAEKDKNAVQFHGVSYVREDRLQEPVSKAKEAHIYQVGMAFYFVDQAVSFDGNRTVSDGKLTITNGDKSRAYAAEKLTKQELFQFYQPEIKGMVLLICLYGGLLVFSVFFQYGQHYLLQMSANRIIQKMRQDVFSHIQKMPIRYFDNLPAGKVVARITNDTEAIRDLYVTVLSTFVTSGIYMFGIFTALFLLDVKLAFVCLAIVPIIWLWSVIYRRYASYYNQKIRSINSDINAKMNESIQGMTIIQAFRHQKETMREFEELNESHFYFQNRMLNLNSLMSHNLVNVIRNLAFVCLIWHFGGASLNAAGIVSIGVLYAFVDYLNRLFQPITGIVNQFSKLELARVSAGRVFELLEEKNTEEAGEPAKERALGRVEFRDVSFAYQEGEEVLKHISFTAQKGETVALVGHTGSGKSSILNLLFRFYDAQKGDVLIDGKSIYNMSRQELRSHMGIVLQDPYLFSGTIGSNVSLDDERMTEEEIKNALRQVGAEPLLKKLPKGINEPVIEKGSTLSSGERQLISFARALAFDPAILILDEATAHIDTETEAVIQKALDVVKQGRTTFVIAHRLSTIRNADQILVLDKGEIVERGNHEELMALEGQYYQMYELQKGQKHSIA
UniProt O07550: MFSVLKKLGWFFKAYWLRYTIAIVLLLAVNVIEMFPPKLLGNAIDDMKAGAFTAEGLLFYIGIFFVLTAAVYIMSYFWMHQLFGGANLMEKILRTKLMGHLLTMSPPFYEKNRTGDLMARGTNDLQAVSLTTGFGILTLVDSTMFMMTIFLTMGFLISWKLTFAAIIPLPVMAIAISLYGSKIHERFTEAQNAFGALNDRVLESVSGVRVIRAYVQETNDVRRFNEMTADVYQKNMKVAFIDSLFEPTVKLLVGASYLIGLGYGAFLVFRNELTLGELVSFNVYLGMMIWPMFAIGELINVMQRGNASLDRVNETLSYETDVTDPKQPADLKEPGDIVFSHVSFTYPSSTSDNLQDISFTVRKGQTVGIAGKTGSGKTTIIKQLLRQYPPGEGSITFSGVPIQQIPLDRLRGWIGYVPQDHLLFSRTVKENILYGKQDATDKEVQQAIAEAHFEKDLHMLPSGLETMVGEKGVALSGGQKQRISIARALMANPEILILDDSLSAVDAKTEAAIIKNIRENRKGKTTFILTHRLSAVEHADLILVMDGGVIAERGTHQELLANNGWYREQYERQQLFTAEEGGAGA

One substance from paper doi:10.1101/2021.03.13.435271 can be followed below.

No constants are given. Whether binding was seen depends on the method and setting. Binding can be weak; no strength is given.

For “BmrC of cysteine-less BmrCD bearing D500Q (BmrCD-QQ) (from UniProt O07550)”, the binding entry is listed as “binds”.
